The values below come from PubChem BioAssay AID2685 (National Center for Advancing Translational Sciences (NCATS), 2010).

Usually AC50 stands for the concentration at which the activity in the assay is half-maximal. Lower therefore signals activity at low concentration.

The nature of the test: qHTS Assay for Lipid Storage Modulators in Drosophila S3 Cells.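 As to cell number change: cells counted by Cell Tracker Red CMTPX staining in the red channel.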 To be noted: BODIPY lipid droplet fluorescence, 18-24 h; for cell number change: measured here: cell count max response, cells fed with added oleic acid. In a few lines:
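Drosophila S3 cells loaded with oleic acid (400 uM, as added) and compounds at several concentrations; lipid droplets imaged by 488-nm laser-scanning cytometry, 500–530 nm intensity and object ratio to cell channel. Percent activity normalized to 20 uM Triacsin C.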
A general note: Quantitative high-throughput screening tests each substance at several concentrations.

Setting [1] is: measured here: lipid fluorescence (Fed channel) AC50, cells fed with added oleic acid.
The mark [2] stands for this setting: measured here: cell number channel AC50, cells fed with added oleic acid.

Some of the results follow. Shown are side measurements of this screen, not its main read-out; they come without a call. Most of these compounds were active or inconclusive in the main read-out, so they are no random draw. Potencies come from curve fits of mixed quality, noted in brackets.

Consider `COC(=O)[C@H](C)NC(=O)COc1ccccc1`, for which the cell number change was -6.47%. Moreover, under setting [1], the concentration at half-maximal activity (AC50) was 32.6 µM [falling, single point]. For the compound `COc1ccc(C(=O)N/N=C/c2ccc(OC)c(OS(=O)(=O)c3ccccc3)c2)cc1`, the cell number change was determined as 17.8%. Besides, under setting [2], the AC50 is 0.82 µM [rising, full curve, poor fit]. Moreover, the AC50 under setting [1] is 1.3 µM [rising, full curve]. With `CCOC(=O)c1c(S(=O)(=O)N(C)Cc2ccccc2)c(C)n(C)c1C`, the cell number change was -6.92%. In the case of `CCOc1ccc(Nc2nc(Cc3nnc(SCC(=O)NCC4CCCO4)n3C)cs2)cc1` (stereo unspecified), the cell number change came out at 10.6%.

On to `Cc1ccc(C)c2[nH]c(=O)c(CN(CCN3CCCC3)C(=O)Nc3ccc(F)cc3)cc12`, for which the cell number change is -6.85%. In the case of `N/C(=N\OC(=O)COc1ccccc1)c1cccnc1`, the cell number change was -4.9%. In the case of `COc1ccccc1CNC(=O)CCCn1nc(C)c2c(C)n(-c3ccc(C)cc3)nc2c1=O`, the half-maximal activity concentration (AC50) under setting [1] is 1.16 µM [rising, partial curve, poor fit]. In the case of `O=S(=O)(NCCC1=CCCCC1)c1ccc(F)cc1`, the cell number change was -5.45%. Besides, the AC50 under setting [1] was 0.651 µM [rising, partial curve, poor fit]. As to `O=C(Cc1c(F)cccc1Cl)Nc1nccs1`, the cell number change was -5.56%. Moreover, the concentration at half-maximal activity (AC50) under setting [1] was 29.1 µM [rising, single point].

`CCOc1cc(C(=O)N=c2sccn2C)ccc1OC(F)F`: the concentration at half-maximal activity (AC50) under setting [1] was 13 µM [falling, partial curve]. Regarding `C[C@H](C(=O)O)c1n[nH]c(=O)c2ccccc12`, the cell number change was -13.6%. Further, under setting [1], the AC50 was 4.11 µM [falling, full curve, poor fit]. On to `CN(CCc1ccccc1)Cc1nc(-c2cnccn2)no1`, for which the cell number change was 10.9%. In addition, the AC50 under setting [1] was 29.1 µM [rising, single point].

Consider `O=C(Nc1ccccc1-c1ccccc1)c1cnccn1`, for which the cell number change worked out at 38.7%. Further, the half-maximal activity concentration (AC50) under setting [2] is 32.6 µM [rising, partial curve, poor fit]. On to `O=C(O)C1=C(OCc2ccc(F)c(F)c2)C(=O)NCC1`, for which the cell number change was 16.3%. `CC(C)OC(=O)CCC(=O)Nc1nc2ccccc2s1`: the cell number change was -19.3%. Also, the concentration at half-maximal activity (AC50) under setting [1] was 29.1 µM [rising, single point].

As to `CCc1ccccc1NC(=O)c1ccoc1C`, the concentration at half-maximal activity (AC50) reads like this: under setting [2], 2.31 µM [rising, partial curve]; under setting [1], 0.116 µM [rising, full curve, poor fit].

With `O=C(Nc1cc2cccc([N+](=O)[O-])c2oc1=O)c1cccs1`, the cell number change amounted to 99.2%. The AC50 under setting [2] is 18.4 µM [rising, single point]. Turning to `O=C(N/N=C/c1ccc[nH]1)c1cccnc1`, the cell number change amounted to 38.7%. Further, the AC50 under setting [2] was 0.411 µM [rising, full curve]. The concentration at half-maximal activity (AC50) under setting [1] is 0.82 µM [rising, full curve]. For the compound `COc1ccccc1-n1nnnc1SCC(=O)NCC1(N2CCOCC2)CCCCC1`, the cell number change was -2.84%. In addition, the half-maximal activity concentration (AC50) under setting [1] is 6.51 µM [falling, single point]. Turning to `COc1ccc(C)cc1NC(=O)c1cc2c(CO)cnc(C)c2oc1=N`, the cell number change was found to be 3.37%. Under setting [1], the AC50 is 9.2 µM [rising, partial curve]. Regarding `Cc1ccc(S(=O)(=O)/N=C2/NC(=O)/C(=C\c3cc(Br)cc(Br)c3O)S2)cc1`, the cell number change was -56.7%. Also, the AC50 under setting [2] is 6.51 µM [falling, single point]. The half-maximal activity concentration (AC50) under setting [1] is 5.8 µM [falling, full curve]. For the compound `Cc1ccc(-c2nc3sc4c(c3c(=O)n2N)CCCC4)cc1`, the cell number change was determined as 102%. The AC50 under setting [2] is 2.91 µM [rising, partial curve]. In addition, the AC50 under setting [1] is 0.82 µM [rising, partial curve].

As to `CN(Cc1cnn(Cc2ccccc2)c1)C(=O)CN=C1NS(=O)(=O)c2ccccc21`, the cell number change turned out to be 10.6%. Moreover, the AC50 under setting [1] was 0.82 µM [rising, full curve, poor fit]. For the compound `O=[N+]([O-])c1cc(C(F)(F)F)ccc1SCC(O)CO` (stereo unspecified), the AC50 under setting [2] was 0.00461 µM [falling, full curve, poor fit]. Turning to `CC(NS(=O)(=O)c1cccc(Cl)c1)C(=O)Nc1ccc(-c2nc3ccccc3s2)cc1` (stereo unspecified), the cell number change is -44.2%. Under setting [2], the half-maximal activity concentration (AC50) is 29.1 µM [falling, single point]. Under setting [1], the concentration at half-maximal activity (AC50) is 2.06 µM [rising, partial curve].

For `CC1(C)CC(=O)C(C=NC2CC(C)(C)NC(C)(C)C2)=C(O)C1`, the cell number change was found to be 0.79%. Moreover, the concentration at half-maximal activity (AC50) under setting [1] is 1.3 µM [falling, full curve]. Turning to `Cc1ccc(N2C(=O)N3[C@H](c4ccc(Br)cc4)[C@@H]4C(=O)N(C(C)(C)C)C(=O)[C@@H]4[C@]3(C)C2=O)cc1`, the cell number change is -12.9%. For `Cc1ccccc1CN1C(=O)CS/C1=N/N=C/c1ccco1`, the cell number change is -5.35%. Also, under setting [1], the AC50 was 0.0058 µM [falling, full curve, poor fit]. Take `O=C(NC1CCCCC1)c1ccc(CS(=O)(=O)c2ccc(Cl)cc2)o1`: under setting [1], the concentration at half-maximal activity (AC50) is 16.4 µM [falling, partial curve, poor fit]. Regarding `CCc1nc(OCc2ccco2)c2sc3nc4c(cc3c2n1)COC(C)(C)C4`, the cell number change was -7.89%. The AC50 under setting [1] was 32.6 µM [rising, single point]. As for `Cc1cc(F)ccc1S(=O)(=O)N1CCCOC1CNC(=O)C(=O)NCc1ccccn1` (stereo unspecified), the cell number change is 14.6%. With `O=C(COC(=O)c1cnccn1)N=c1sccn1Cc1ccccc1Cl`, the AC50 under setting [1] was 16.4 µM [rising, partial curve]. As for `COc1ccccc1CCNC(=O)/C(=C/c1cccnc1)NC(=O)c1ccccc1`, the cell number change turned out to be 13.6%. Under setting [1], the half-maximal activity concentration (AC50) was 1.64 µM [rising, full curve, poor fit]. On to `CC1(c2ccccc2)NC(=O)N(CC(=O)NNC(=O)c2ccccc2)C1=O` (stereo unspecified), for which the cell number change was -15.5%. Under setting [1], the AC50 was 25.9 µM [rising, partial curve, poor fit]. On to `Cc1ccc(COC(=O)c2nn(C)c(=O)c3ccccc23)cc1`, for which the cell number change was -13.3%. As to `CC(C(=O)OCc1nnc(-c2ccccc2)o1)N1C(=O)c2ccccc2C1=O` (stereo unspecified), the cell number change was found to be 13.4%. The AC50 under setting [2] is 6.51 µM [falling, single point]. For `c1ccc(CNc2ncnc3c2cnn3-c2ccccc2)cc1`, the cell number change was -11.5%. Also, under setting [1], the AC50 was 29.1 µM [rising, single point].

In the case of `CCCCn1c(SCC(=O)NCc2ccc(OC)c(C(=O)O)c2)nc2cc(S(N)(=O)=O)ccc21`, the cell number change is 22.4%. Further, under setting [1], the concentration at half-maximal activity (AC50) was 35.5 µM [falling, single point]. For `Cc1ccc(C2c3[nH]c4ccccc4c3C[C@H]3C(=O)N(c4ccccc4C(=O)NCCCN4CCOCC4)C(=O)N23)cc1` (stereo partly specified), the cell number change was 9.88%. With `COC(=O)CC1=NC(=O)CS1`, the cell number change was 4.91%. Further, the AC50 under setting [1] is 29.1 µM [rising, single point]. On to `CN(C)C(CNC(=O)C1CCCN(C(=O)c2ccc(Cl)cc2)C1)c1ccco1` (stereo unspecified), for which the cell number change was -20.9%. The AC50 under setting [2] is 0.00411 µM [falling, full curve, poor fit]. With `CC(=O)CSc1nc2ccc(Nc3nc(N4CCOCC4)nc(N4CCOCC4)n3)cc2s1`, the cell number change is -18.8%. On to `Cc1cc(C)c(S(=O)(=O)/N=C2\C=C(NS(=O)(=O)c3ccccc3)C(=O)c3ccccc32)c(C)c1`, for which the cell number change was -6.58%. For the same compound, the concentration at half-maximal activity (AC50) under setting [1] was 5.62 µM [rising, single point]. Turning to `O=C(CSc1cccc2cccnc12)Nc1ccccc1F`, the cell number change was -19.6%. Besides, under setting [1], the AC50 is 20.6 µM [falling, single point]. With `Cc1cccc(OCC(O)Cn2c(=N)n(Cc3ccccc3)c3ccccc32)c1` (stereo unspecified), the cell number change is -70.2%. Under setting [2], the AC50 is 29.1 µM [falling, single point]. For the same compound, the AC50 under setting [1] is 29.1 µM [falling, single point]. As for `CC(=O)c1ccc(S(=O)(=O)N2CCN(C(=O)c3ccc(-n4nc(C)c(Cl)c4C)cc3)CC2)cc1`, the cell number change was -5.23%. The AC50 under setting [1] was 32.6 µM [falling, single point]. As for `CC(NC(=O)c1cccc(S(=O)(=O)N2CCN(Cc3ccccc3)CC2)c1)c1ccc(Br)cc1` (stereo unspecified), the cell number change is 26.8%. The AC50 under setting [1] was 0.00461 µM [rising, full curve, poor fit]. Take `CC1CCCCC1NC(=O)c1cc(=O)[nH]c2ccccc12` (stereo unspecified): the cell number change amounted to 12%.

With `CCc1ccc2[nH]c(=O)c(CN(CCCN3CCOCC3)C(=O)Nc3cccc(Cl)c3)cc2c1`, the cell number change was -5.36%. The AC50 under setting [2] is 2.91 µM [rising, single point]. Further, the AC50 under setting [1] is 0.116 µM [rising, full curve, poor fit].

For the compound `Cc1cccc(OCc2nnc(N)s2)c1C`, the cell number change was 0.0585%. Besides, the half-maximal activity concentration (AC50) under setting [1] is 2.59 µM [rising, full curve, poor fit]. Consider `COc1ccc(CCNC(=O)CN2CCN(Cc3ccccc3F)C2=O)cc1OC`, for which the cell number change was -53.8%. For the same compound, the AC50 under setting [2] was 4.11 µM [falling, partial curve]. The concentration at half-maximal activity (AC50) under setting [1] is 29.1 µM [falling, single point]. Consider `Cc1ccc(S(=O)(=O)N(C)C)cc1NS(=O)(=O)c1ccc(Cl)s1`, for which, under setting [1], the AC50 was 10.3 µM [falling, partial curve, poor fit].

`N#C/C(=C1/C(=O)Nc2ccc(Br)cc21)c1ccccn1`: the half-maximal activity concentration (AC50) under setting [1] was 3.66 µM [rising, partial curve, poor fit]. Regarding `COc1ccc(C(=S)N2CCOCC2)cc1OC(=O)c1cc(OC)c(OC)c(OC)c1`, the cell number change was found to be 7.89%. For the same compound, the AC50 under setting [1] is 35.5 µM [rising, single point]. As for `COc1cc(-c2csc(CCn3nc(C)cc3C)n2)cc(OC)c1OC`, the cell number change turned out to be 2.33%. With `Cc1ccc(C(=O)n2nnc3ccccc32)cc1[N+](=O)[O-]`, the cell number change is -14.7%. Besides, the AC50 under setting [1] was 0.103 µM [falling, full curve, poor fit]. On to `Cc1ccc(S(=O)(=O)N2CCN(Cc3ccccn3)CC2)cc1`, for which the cell number change was found to be 3.12%. The half-maximal activity concentration (AC50) under setting [1] is 32.6 µM [falling, single point]. As for `Cc1nnc(NC(=O)CN2CCN(Cc3ccc(F)cc3Cl)CC2)s1`, the cell number change was found to be 29%. Consider `O=C(CCC(=O)Nc1nnc(C2CCCCC2)s1)NCC1CCCO1` (stereo unspecified), for which the cell number change was -10.4%. Besides, the half-maximal activity concentration (AC50) under setting [2] is 3.26 µM [falling, single point]. For the same compound, the AC50 under setting [1] was 6.51 µM [falling, single point]. Regarding `O=C(Oc1nsnc1N1CCOCC1)N1CCOCC1`, the cell number change was -19.9%. Also, under setting [1], the AC50 is 29.1 µM [falling, single point].

For the compound `CCN(C(=O)CN1C(=O)S/C(=C\c2ccc(Cl)cc2)C1=O)C1CCS(=O)(=O)C1` (stereo unspecified), the cell number change is 14.5%. Moreover, under setting [1], the half-maximal activity concentration (AC50) is 0.00517 µM [rising, full curve, poor fit].
